From patent US20160362464A1
Results are given in words; binding and its absence hold for the method and conditions named. In cells and extracts the contact can be indirect. Some results given as binding are weak or reduced against the parent protein; the word gives no strength.

Chains of the proteins cited; added tags and fusions are not shown.
UniProt P08753: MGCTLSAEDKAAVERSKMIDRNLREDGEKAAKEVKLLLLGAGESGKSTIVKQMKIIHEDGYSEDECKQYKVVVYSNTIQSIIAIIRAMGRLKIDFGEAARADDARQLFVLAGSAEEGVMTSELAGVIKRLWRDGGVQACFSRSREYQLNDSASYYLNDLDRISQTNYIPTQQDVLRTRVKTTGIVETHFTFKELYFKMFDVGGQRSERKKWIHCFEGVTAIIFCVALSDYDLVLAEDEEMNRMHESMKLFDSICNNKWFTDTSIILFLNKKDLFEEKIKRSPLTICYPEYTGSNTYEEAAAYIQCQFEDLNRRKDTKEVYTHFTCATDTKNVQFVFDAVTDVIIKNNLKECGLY

Molecular target: GST-Gαi3 preloaded with GDP (inactive) (rat) (UniProt P08753)
Assay: competition in GST pulldown, KB-752 varied, His-DAPLE-CT fixed (FIG. 10A)

- binding: binds
B1: KB-752 synthetic GEF peptide (peptide)
peptide: SRVTWYDFLMEDTKSR
